Experimental data as given in patent US5079228A, “Peptide inhibitors of neutrophil activating factor induced chemotaxis” (Board of Regents, The University of Texas System, priority 1990, dated 1992).
Entries after “also recorded” stand apart in the source; their conditions may differ. At least one peptide structure holds a part that was inferred or is arguable (an end, a ring closure or a residue). Where no end group is shown, it is not given here.

How the values were obtained:
human neutrophils = test: Neutrophil chemotaxis, leading front method in blind well chamber (chemotactic activity of the peptide itself); format: cell-based; details: synthetic peptide alone, 1 × 10^-6 M in lower well; control = RPMI-1640
Method: Each of the peptides was assayed for its ability to induce the directed migration of neutrophils towards itself. […] The distances migrated by the cells, under the influence of the various peptides, was therefore expressed as a percentage of the distance travelled in RPMI tissue culture medium alone. In the first experiments the effect of native NAF on the cells was compared to that of FMLP (FIG. I). […] None of the synthetic peptides induced chemotaxis either alone or in combination with one another when the synthetic peptides were examined under the same conditions (FIG. 2).
(§1) Human blood was anticoagulated with heparin.
(§2) Chemotaxis was performed using the leading front method as described by Zigmond and Hirsch.^21 The test material was placed in the lower well of a blind well chemotaxis chamber.^22 A five micron pore size, and 100 μl aliquot of the neutrophil preparation (1×10^6 cells/ml) in RPMI-1640 containing 1% albumin was added to the top of the filter and incubated at 37° C. for 30 min. (In some experiments neutrophils were pre-incubated in the presence of peptide for 10 min at room temperature before being added to the upper chamber.) The filter was then fixed and stained and mounted on a glass microscope slide. The leading front was determined by the position of the leading two cells. The distance that the leading two cells had moved through the filter was measured for six fields on each filter. The measurements were made with two filters for each set of conditions.

[1] = system: Neutrophil activating factor induced human neutrophil chemotaxis; test: Inhibition of NAF-induced neutrophil chemotaxis; format: cell-based; details: for DISTANCE MOVED (% of control) / INHIBITION (%) of NAF-induced neutrophil chemotaxis: NAF 1 × 10^-8 M plus peptide 1 × 10^-6 M in lower well
Source text: The peptides were examined to determine if any of the peptides could block the action of the native molecule. In these experiments the attractant in the lower well of the Boyden chamber contained both native NAF (1×10^-8 M) and one or more synthetic peptide(s) (1×10^-6 M) Table 2. The migration of the cells in RPMI tissue culture medium alone, or under the influence of native NAF or the individual peptides was also examined in each experiment. […] The mean migration of native NAF was an average of 79% (S.D.=3) above that of buffer alone, while the mean migration towards native NAF in the presence of NAF (3-25) was 32% (S.D.=10) and the mean migration towards native NAF in the presence of NAF (44-72) (S.D.=13) was 52% above control migration (Table 2). These reductions are statistically significant at p<0.002 by Student's t test. These two peptides inhibited NAF induced migration by 59 and 34% respectively. When NAF was incubated in the presence of both peptides the mean migration towards native NAF was 24% (S.D.=3) above controls for a total inhibition of NAF activity of 70%. Therefore, the inhibitory effects of the peptides were approximately additive.
as §1, §2

ANTEIIVKLSDGRELCLDPKE [NAF(35-55)]
DISTANCE MOVED (% of control) (human neutrophils): 100 ± 2 % of control | DISTANCE MOVED (% of control) [1]: 190 ± 6 % of control

LRVIESGPHCANTEIIVKL [NAF(25-43), LRVIESGPHCANTEIIVKL]
DISTANCE MOVED (% of control) (human neutrophils): 94 ± 11 % of control | DISTANCE MOVED (% of control) [1]: 181 ± 13 % of control

PKFIKELRVIESGP [NAF(19-32), PKFIKELRVIESGP]
DISTANCE MOVED (% of control) (human neutrophils): 100 ± 11 % of control | DISTANCE MOVED (% of control) [1]: 187 ± 8 % of control

SDGRELCLDPKENWVQRVVEKFLKRAENS [NAF(44-72)]
DISTANCE MOVED (% of control) (human neutrophils): 97 ± 6 % of control | DISTANCE MOVED (% of control) [1]: 152 ± 13 % of control | INHIBITION (%) of NAF-induced neutrophil chemotaxis [1]: 34 ± 16% | INHIBITION (%) of NAF-induced neutrophil chemotaxis ([1]; listed as NAF (44-72)): 34% | mean migration towards native NAF in the presence of peptide, above control migration ([1]; native NAF 1 × 10^-8 M plus synthetic peptide(s) 1 × 10^-6 M): 52% | effect on the action of native NAF (in words) ([1]; native NAF plus synthetic peptide): able to reduce neutrophil chemotaxis; also recorded: reduce the action of native NAF
